Reference: article PMC5079582
Results are given in words; binding and its absence hold for the method and conditions named. Binding seen in cells or lysates may run through a third protein. Tags and fused reporters may be left off the sequences shown.

B1: DSP3-MYC, in vitro translated (protein, UniProt Q8VZA0 1-936)
chain: MTSSMEEDDSISPESISLDTLASIRSLIINADTSDSVISSVFDFLTGLLSRGNSAILHHVLKLLSDLAFRRKELAPQIFDSILSNLLRLHNTVAEASHERAAVESLAVLASLSERTPSIAAALSKIDDEVFASICLGAPISSRLWLLRNADRFNVPSSVLFTLFLGFSKDPYPYIRKVALDGLINICNAGDFNHTHAVEGCYTRAVELLSDAEDSVRSSAVRAVSVWGKVMIASKEEEMNRRDCTDAVFLQLCSVVRDMSVDVRVEVFKAFGIIGTASESIILQTLSKKVLGAGKGKKPQNLLSNGSADVSSAAGVYIHGFEDEFYEVREAAVDSFHSLSVNSIKFPDEAVYLLMDMLYDDYMVVRLKALKALHHIADLGNLKIQETYMPAFLDAIVDTSENIRVEARNILKLAKLPDLKLVNKCIDGVLKSLEMYPQDEPDILSALFHFGQNHTNFLVSMVKRFSEKLGTASGSKAEFNSRQLSASLTLIISAPLSNKQSITSIPPLAFSYSLAMLGKFSSGLHDMMDQDMLLAYLTHCAILSSSSGTEFNKGDVFFHAYRDSNADLAGNPVLLPGKDIPAESKYMACKAELEIGNQALKFVNHILLKIKAAWLLSQSGCSKEALRALRACKQELATLTADSSISKGTLDFICQYVHVIELLVQVWPHFNYSRHISTCSSVEVELLMEEVEIKLMEIRCRFTGLSTEESLVLELVIFGCLLRLYKFEICCRLSCMEKLSSTISQLELHHEQQCTKPSDFLTETKKSLEEFGSSDDINSCRLLDLIKIFKCFSPEQFTFSVNLQCVSAEVEVPGNGPYSPISFVPGLPVAIPCEITLLNVPRDTCLWLRISRNDETCQFVYLDPNLYNGNGREKRFMFTAVTYMTPRAVVFTLRVSIGIECLFEDICYRKQRHGPKHPVAYLCKEREIHLSLVSRT
B2: MYC-CPSF73-I, in transgenic Arabidopsis (enzyme, UniProt Q9C952 1-693)
chain: MASSSTSLKRREQPISRDGDQLIVTPLGAGSEVGRSCVYMSFRGKNILFDCGIHPAYSGMAALPYFDEIDPSSIDVLLITHFHIDHAASLPYFLEKTTFNGRVFMTHATKAIYKLLLTDYVKVSKVSVEDMLFDEQDINKSMDKIEVIDFHQTVEVNGIKFWCYTAGHVLGAAMFMVDIAGVRILYTGDYSREEDRHLRAAELPQFSPDICIIESTSGVQLHQSRHIREKRFTDVIHSTVAQGGRVLIPAFALGRAQELLLILDEYWANHPDLHNIPIYYASPLAKKCMAVYQTYILSMNDRIRNQFANSNPFVFKHISPLNSIDDFNDVGPSVVMATPGGLQSGLSRQLFDSWCSDKKNACIIPGYMVEGTLAKTIINEPKEVTLMNGLTAPLNMQVHYISFSAHADYAQTSTFLKELMPPNIILVHGEANEMMRLKQKLLTEFPDGNTKIMTPKNCESVEMYFNSEKLAKTIGRLAEKTPDVGDTVSGILVKKGFTYQIMAPDELHVFSQLSTATVTQRITIPFVGAFGVIKHRLEKIFESVEFSTDEESGLPALKVHERVTVKQESEKHISLQWSSDPISDMVSDSIVALILNISREVPKIVMEEEDAVKSEEENGKKVEKVIYALLVSLFGDVKLGENGKLVIRVDGNVAQLDKESGEVESEHSGLKERVRVAFERIQSAVKPIPLSAS

Tests used:
[1] = biological target: GFP-DSP4, expressed in N. benthamiana (Arabidopsis); assay: co-IP; in vitro translated DSP3-MYC added to N. benthamiana protein extracts containing GFP-tagged proteins or GFP; western blot (paper: Co-IP/pull down)
[2] = biological target: GFP-DSP4, in transgenic Arabidopsis (Arabidopsis); assay: co-IP; protein extracts of F1 Arabidopsis harboring two transgenes (GFP-DSP1/MYC-CPSF73-I, GFP-DSP1/MYC-DSP4, GFP-DSP4/MYC-CPSF73-I); IP with anti-GFP antibodies, western blot

Row | Binder | binding [1] | binding [2]
1 | B1 | no binding | 
2 | B2 |  | no binding
